Source: the supplement of paper PMC12067093, “Discovery and optimisation of a covalent ligand for TRIM25 and its application to targeted protein ubiquitination” (Chemical Science, 2025)
Some of the results follow.

Sequences of proteins named here, by UniProt entry; tags and fusion partners are left off. A change or cut given only in a name is not applied to a line headed by its entry.
UniProt Q14566: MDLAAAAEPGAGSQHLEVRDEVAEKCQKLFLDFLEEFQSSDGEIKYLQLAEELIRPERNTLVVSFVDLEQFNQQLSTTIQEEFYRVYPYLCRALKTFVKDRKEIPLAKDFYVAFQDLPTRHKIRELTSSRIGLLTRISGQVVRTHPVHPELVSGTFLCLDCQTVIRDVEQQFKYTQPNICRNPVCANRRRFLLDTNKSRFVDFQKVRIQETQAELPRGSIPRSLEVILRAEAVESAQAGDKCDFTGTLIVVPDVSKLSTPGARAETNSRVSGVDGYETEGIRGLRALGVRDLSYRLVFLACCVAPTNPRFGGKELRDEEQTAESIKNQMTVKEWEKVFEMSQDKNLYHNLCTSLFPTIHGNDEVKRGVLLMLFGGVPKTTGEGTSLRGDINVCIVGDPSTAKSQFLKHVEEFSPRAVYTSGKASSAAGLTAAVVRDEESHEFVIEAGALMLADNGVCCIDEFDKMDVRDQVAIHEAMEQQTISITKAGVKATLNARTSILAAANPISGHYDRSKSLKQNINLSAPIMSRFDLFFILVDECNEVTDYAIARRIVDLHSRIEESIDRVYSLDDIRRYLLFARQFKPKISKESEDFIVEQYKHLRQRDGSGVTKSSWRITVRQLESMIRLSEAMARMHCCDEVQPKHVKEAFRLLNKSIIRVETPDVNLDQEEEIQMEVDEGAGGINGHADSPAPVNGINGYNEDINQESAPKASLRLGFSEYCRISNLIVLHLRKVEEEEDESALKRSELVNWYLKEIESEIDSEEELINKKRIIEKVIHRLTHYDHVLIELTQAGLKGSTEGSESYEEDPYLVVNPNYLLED
UniProt P40926: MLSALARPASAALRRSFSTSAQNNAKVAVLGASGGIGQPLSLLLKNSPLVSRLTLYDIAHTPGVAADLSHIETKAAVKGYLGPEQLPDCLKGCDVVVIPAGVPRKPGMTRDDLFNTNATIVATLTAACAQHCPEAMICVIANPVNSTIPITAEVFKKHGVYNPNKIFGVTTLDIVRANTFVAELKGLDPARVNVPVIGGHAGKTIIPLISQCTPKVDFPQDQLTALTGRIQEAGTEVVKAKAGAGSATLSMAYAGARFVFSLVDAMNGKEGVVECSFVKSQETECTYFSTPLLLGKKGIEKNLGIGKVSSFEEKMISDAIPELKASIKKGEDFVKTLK
UniProt P33992: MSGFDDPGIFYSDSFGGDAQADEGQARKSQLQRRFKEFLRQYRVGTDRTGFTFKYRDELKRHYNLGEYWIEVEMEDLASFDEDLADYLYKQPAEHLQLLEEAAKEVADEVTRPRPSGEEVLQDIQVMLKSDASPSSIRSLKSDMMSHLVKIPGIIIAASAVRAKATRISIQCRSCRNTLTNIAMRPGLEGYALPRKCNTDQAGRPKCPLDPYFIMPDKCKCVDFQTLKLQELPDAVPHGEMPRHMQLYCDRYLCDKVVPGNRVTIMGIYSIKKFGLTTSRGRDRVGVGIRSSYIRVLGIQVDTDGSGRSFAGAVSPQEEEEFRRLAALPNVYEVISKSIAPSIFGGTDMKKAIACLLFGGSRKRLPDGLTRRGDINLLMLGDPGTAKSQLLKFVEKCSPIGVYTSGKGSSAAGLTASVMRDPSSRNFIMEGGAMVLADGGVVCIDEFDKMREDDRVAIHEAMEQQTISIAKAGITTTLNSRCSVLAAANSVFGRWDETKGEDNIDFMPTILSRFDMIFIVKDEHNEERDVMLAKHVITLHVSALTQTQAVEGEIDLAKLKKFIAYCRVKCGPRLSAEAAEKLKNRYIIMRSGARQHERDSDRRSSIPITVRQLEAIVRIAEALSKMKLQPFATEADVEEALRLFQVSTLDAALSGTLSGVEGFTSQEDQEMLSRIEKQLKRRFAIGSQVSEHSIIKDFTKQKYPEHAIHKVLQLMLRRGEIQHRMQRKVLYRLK
UniProt P33991: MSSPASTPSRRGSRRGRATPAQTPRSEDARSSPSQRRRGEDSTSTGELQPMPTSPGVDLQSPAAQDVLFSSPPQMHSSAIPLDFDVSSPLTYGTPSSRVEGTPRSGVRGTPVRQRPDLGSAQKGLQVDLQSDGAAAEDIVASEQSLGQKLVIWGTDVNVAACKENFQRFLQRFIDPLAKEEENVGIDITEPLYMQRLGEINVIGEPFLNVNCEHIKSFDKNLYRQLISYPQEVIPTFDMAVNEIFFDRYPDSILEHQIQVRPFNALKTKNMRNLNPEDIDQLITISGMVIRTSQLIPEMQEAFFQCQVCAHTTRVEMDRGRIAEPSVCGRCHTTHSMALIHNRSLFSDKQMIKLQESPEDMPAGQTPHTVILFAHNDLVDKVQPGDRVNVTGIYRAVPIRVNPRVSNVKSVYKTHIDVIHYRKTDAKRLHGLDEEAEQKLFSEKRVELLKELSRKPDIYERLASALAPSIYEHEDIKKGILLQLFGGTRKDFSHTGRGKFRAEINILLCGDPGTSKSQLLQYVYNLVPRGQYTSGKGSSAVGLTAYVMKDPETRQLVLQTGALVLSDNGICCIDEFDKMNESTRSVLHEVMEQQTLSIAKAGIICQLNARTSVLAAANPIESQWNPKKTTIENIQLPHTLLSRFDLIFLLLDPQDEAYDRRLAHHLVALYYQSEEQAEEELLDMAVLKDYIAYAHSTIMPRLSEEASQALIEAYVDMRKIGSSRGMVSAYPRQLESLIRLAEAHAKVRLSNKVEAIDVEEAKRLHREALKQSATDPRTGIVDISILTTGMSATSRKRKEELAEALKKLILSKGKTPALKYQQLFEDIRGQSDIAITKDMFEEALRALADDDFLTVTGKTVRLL
UniProt P50579: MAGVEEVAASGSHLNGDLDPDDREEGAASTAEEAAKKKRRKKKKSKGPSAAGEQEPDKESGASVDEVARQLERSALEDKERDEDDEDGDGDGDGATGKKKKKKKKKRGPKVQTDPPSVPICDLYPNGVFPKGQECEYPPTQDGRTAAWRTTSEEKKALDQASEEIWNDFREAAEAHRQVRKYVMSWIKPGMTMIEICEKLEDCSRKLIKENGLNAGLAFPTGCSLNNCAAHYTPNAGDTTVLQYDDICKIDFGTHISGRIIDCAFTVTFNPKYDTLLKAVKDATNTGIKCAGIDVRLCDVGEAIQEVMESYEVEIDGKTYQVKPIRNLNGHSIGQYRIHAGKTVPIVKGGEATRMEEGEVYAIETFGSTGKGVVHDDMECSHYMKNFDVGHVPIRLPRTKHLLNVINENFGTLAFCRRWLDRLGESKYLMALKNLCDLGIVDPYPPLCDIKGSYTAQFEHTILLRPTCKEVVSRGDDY
UniProt P49736, whole entry, looked up: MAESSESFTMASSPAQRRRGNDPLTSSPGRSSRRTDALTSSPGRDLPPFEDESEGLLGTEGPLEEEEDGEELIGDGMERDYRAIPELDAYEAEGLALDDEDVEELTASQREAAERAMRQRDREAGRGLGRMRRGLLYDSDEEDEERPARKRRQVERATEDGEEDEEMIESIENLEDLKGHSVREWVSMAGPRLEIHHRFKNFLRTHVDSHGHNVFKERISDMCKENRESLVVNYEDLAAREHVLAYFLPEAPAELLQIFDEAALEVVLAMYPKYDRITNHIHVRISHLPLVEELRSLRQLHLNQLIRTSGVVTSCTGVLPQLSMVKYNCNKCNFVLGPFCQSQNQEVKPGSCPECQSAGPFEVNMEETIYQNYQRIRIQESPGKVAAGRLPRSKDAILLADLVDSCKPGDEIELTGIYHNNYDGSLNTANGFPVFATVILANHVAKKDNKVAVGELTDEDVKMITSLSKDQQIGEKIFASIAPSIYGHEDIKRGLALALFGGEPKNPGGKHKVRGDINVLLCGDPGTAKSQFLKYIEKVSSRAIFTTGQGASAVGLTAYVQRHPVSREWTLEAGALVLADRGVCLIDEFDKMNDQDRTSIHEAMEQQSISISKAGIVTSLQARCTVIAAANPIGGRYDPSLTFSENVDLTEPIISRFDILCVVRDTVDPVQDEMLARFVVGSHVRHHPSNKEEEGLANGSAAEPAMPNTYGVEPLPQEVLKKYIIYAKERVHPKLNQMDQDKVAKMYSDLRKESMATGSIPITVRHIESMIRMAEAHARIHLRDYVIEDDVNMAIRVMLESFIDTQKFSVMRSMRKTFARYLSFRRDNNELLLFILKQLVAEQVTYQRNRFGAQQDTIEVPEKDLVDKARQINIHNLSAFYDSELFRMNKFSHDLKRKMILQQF
UniProt Q8N6R0: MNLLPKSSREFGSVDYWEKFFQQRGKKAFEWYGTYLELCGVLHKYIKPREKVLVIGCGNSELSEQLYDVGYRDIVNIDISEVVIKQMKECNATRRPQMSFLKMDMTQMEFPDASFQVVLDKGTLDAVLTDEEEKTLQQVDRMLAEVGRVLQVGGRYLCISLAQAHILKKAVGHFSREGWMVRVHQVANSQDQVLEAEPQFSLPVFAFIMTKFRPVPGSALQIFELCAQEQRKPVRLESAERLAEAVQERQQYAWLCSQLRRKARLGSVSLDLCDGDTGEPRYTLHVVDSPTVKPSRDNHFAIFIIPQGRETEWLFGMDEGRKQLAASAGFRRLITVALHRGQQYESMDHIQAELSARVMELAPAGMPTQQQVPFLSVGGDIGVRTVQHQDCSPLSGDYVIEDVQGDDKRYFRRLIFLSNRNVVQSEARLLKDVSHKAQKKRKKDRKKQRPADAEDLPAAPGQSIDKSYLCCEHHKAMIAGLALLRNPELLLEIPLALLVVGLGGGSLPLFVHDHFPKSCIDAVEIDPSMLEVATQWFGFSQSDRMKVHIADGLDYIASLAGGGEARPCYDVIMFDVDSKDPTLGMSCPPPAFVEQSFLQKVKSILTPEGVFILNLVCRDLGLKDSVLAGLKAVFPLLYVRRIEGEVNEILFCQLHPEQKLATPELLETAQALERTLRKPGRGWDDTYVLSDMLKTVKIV
UniProt P33993, whole entry, looked up: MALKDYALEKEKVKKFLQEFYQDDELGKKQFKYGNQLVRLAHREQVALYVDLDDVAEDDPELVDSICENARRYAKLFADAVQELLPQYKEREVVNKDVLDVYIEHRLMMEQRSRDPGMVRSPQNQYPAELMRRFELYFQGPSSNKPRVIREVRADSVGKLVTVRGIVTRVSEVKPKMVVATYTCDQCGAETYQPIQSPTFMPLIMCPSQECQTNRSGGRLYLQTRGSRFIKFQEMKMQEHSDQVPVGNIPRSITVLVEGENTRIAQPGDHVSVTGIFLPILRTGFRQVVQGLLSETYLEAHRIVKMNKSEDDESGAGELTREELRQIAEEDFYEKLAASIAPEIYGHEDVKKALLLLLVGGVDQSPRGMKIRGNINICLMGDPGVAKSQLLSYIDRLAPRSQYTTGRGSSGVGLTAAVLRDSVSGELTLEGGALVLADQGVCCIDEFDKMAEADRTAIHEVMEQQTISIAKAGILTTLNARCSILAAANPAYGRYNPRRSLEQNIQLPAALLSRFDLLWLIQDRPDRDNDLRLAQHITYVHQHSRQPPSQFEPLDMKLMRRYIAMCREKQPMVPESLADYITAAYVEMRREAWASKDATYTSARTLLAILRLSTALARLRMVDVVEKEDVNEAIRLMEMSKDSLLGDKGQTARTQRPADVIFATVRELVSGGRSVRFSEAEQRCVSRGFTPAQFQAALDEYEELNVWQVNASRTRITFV
UniProt Q6UX53: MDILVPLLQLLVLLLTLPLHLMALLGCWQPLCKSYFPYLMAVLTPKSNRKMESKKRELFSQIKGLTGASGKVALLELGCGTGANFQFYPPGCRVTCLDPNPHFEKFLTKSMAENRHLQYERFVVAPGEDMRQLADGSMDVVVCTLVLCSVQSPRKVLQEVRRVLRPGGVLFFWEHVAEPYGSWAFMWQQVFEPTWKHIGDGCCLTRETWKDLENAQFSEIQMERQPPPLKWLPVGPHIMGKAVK
UniProt Q05BQ5, whole entry, looked up: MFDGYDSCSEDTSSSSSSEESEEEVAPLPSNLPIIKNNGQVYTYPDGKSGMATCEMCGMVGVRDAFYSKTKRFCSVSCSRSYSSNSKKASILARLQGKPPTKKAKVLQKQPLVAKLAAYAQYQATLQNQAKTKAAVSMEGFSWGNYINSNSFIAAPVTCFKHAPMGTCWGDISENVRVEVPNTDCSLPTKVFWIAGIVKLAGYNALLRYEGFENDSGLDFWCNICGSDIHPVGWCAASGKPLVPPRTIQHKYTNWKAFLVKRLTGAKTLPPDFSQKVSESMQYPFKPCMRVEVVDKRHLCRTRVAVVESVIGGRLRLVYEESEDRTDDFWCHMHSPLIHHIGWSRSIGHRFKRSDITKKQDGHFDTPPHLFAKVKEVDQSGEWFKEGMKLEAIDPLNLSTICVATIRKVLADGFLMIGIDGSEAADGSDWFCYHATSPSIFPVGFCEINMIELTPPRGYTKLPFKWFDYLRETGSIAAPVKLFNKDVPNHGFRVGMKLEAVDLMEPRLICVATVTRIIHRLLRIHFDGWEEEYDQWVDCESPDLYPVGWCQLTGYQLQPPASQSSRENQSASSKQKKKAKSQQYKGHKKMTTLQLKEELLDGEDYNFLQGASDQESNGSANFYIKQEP

Compound: CC1Cc2ccccc2N1C(=O)C1CCCN(C1)C(=O)CCl (mixture of isomers) [TRIM25 ligand 11 (diastereomer mixture)]
Assay: probe-labelled cysteine peptide fold change vs DMSO (competition) (log2 fold change); higher = less target engagement (more negative = stronger competition)
Conditions: THP-1, incubation time: 4 h
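Note: competitive chemoproteomic profiling in live THP-1 cells with an iodoacetamide desthiobiotin (IA-DTB) probe, comparing probe-labelled peptide intensities in compound-treated cells against DMSO-treated controls.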

MCM6_Q14566_351_NLYHNLCTSLFPTIHGNDEVKR (UniProt Q14566)
probe-labelled cysteine peptide fold change (10 µM): -0.237 | probe-labelled cysteine peptide fold change (50 µM): -0.0364

MDH2_P40926_285_SQETECTYFSTPLLLGKK (UniProt P40926)
probe-labelled cysteine peptide fold change (10 µM): -0.328 | probe-labelled cysteine peptide fold change (50 µM): -0.222

MDN1_Q9NU22_333_SLQTLAMAVASQNAVLLEGPIGCGK (UniProt Q9NU22)
probe-labelled cysteine peptide fold change (10 µM): -0.0868 | probe-labelled cysteine peptide fold change (50 µM): -0.0522

MCM5_P33992_197_KCNTDQAGR (UniProt P33992)
probe-labelled cysteine peptide fold change (10 µM): -0.125 | probe-labelled cysteine peptide fold change (50 µM): -0.0339

MED13L_Q71F56_1919_DWSILLGECSLQTISK (UniProt Q71F56)
probe-labelled cysteine peptide fold change (10 µM): 0.138 | probe-labelled cysteine peptide fold change (50 µM): 0.061

MCM4_P33991_328_IAEPSVCGR (UniProt P33991)
probe-labelled cysteine peptide fold change (10 µM): -0.0359 | probe-labelled cysteine peptide fold change (50 µM): 0.124

MDH2_P40926_275_EGVVECSFVK (UniProt P40926)
probe-labelled cysteine peptide fold change (10 µM): 0.0473 | probe-labelled cysteine peptide fold change (50 µM): 0.0859

METAP2_P50579_468_GSYTAQFEHTILLRPTCK (UniProt P50579)
probe-labelled cysteine peptide fold change (10 µM): -0.0265 | probe-labelled cysteine peptide fold change (50 µM): -0.075

MFF_Q9GZY8_209_VCPPHMLPEDGANLSSAR (UniProt Q9GZY8)
probe-labelled cysteine peptide fold change (10 µM): -0.0143 | probe-labelled cysteine peptide fold change (50 µM): -0.255

METTL16_Q86W50_276_VTYTEFCQGR (UniProt Q86W50)
probe-labelled cysteine peptide fold change (10 µM): 0.122 | probe-labelled cysteine peptide fold change (50 µM): -0.0349

MCM3_P25205_119+123+126_TLTSCFLSCVVCVEGIVTK (UniProt P25205)
probe-labelled cysteine peptide fold change (10 µM): -0.129 | probe-labelled cysteine peptide fold change (50 µM): -0.473

MCM2_P49736_624_CTVIAAANPIGGR (UniProt P49736)
probe-labelled cysteine peptide fold change (10 µM): 0.0682 | probe-labelled cysteine peptide fold change (50 µM): 0.0292

MCM6_Q14566_637_MHCCDEVQPK (UniProt Q14566)
probe-labelled cysteine peptide fold change (10 µM): -0.0366 | probe-labelled cysteine peptide fold change (50 µM): -0.0938

MBOAT7_Q96N66_310_NIDCYSTDFCVR (UniProt Q96N66)
probe-labelled cysteine peptide fold change (10 µM): 0.334 | probe-labelled cysteine peptide fold change (50 µM): 0.199

METAP1_P53582_22+25_LQCPTCIK (UniProt P53582)
probe-labelled cysteine peptide fold change (10 µM): 0.0271 | probe-labelled cysteine peptide fold change (50 µM): -0.0727

MCCC1_Q96RQ3_332_HNFCFMEMNTR (UniProt Q96RQ3)
probe-labelled cysteine peptide fold change (10 µM): 0.179 | probe-labelled cysteine peptide fold change (50 µM): -0.117

MFSD2A_Q8NA29_44_KQQLSVCNK (UniProt Q8NA29)
probe-labelled cysteine peptide fold change (10 µM): -0.207 | probe-labelled cysteine peptide fold change (50 µM): -0.294

METTL13_Q8N6R0_652_IEGEVNEILFCQLHPEQK (UniProt Q8N6R0)
probe-labelled cysteine peptide fold change (10 µM): -0.0514 | probe-labelled cysteine peptide fold change (50 µM): 0.0839

MFSD5_Q6N075_390_VPLHSLACLGLLVLHDSDRK (UniProt Q6N075)
probe-labelled cysteine peptide fold change (10 µM): 0.0253 | probe-labelled cysteine peptide fold change (50 µM): -0.0131

MCM7_P33993_482_CSILAAANPAYGR (UniProt P33993)
probe-labelled cysteine peptide fold change (10 µM): -0.0176 | probe-labelled cysteine peptide fold change (50 µM): -0.037

METTL7B_Q6UX53_203_HIGDGCCLTR (UniProt Q6UX53)
probe-labelled cysteine peptide fold change (10 µM): 0.0339 | probe-labelled cysteine peptide fold change (50 µM): -0.00446

MGA_Q8IWI9_1071_RQPAHCR (UniProt Q8IWI9)
probe-labelled cysteine peptide fold change (10 µM): -0.0749 | probe-labelled cysteine peptide fold change (50 µM): 0.0395

MBTD1_Q05BQ5_78_FCSVSCSR (UniProt Q05BQ5)
probe-labelled cysteine peptide fold change (10 µM): -0.095 | probe-labelled cysteine peptide fold change (50 µM): 0.0391

MGAT2_Q10469_440_NGGWGDIRDHELCK (UniProt Q10469)
probe-labelled cysteine peptide fold change (10 µM): 0.00136 | probe-labelled cysteine peptide fold change (50 µM): 0.0381

MCCC2_Q9HCC0_391_KGTHFVQLCCQR (UniProt Q9HCC0)
probe-labelled cysteine peptide fold change (10 µM): 0.028 | probe-labelled cysteine peptide fold change (50 µM): 0.1

MCM4_P33991_306+309_TSQLIPEMQEAFFQCQVCAHTTR (UniProt P33991)
probe-labelled cysteine peptide fold change (10 µM): 0.0632 | probe-labelled cysteine peptide fold change (50 µM): 0.234

METTL7B_Q6UX53_79_VALLELGCGTGANFQFYPPGCR (UniProt Q6UX53)
probe-labelled cysteine peptide fold change (10 µM): -0.0975 | probe-labelled cysteine peptide fold change (50 µM): -0.168

MDN1_Q9NU22_3690_LLGSQLLACTLSHNTLFGEAPSDLMVKPDGPYDFYQHPNVPEAR (UniProt Q9NU22)
probe-labelled cysteine peptide fold change (10 µM): 0.00494 | probe-labelled cysteine peptide fold change (50 µM): 0.105

MED1_Q15648_135_VAHHGENPVSCPELVQQLR (UniProt Q15648)
probe-labelled cysteine peptide fold change (10 µM): -0.00655 | probe-labelled cysteine peptide fold change (50 µM): -0.0663

MEPCE_Q7L2J0_452+463_GRDVLDLGCNVGHLTLSIACK (UniProt Q7L2J0)
probe-labelled cysteine peptide fold change (10 µM): 0.177 | probe-labelled cysteine peptide fold change (50 µM): 0.0445

METAP2_P50579_197_PGMTMIEICEK (UniProt P50579)
probe-labelled cysteine peptide fold change (10 µM): 0.0918 | probe-labelled cysteine peptide fold change (50 µM): 0.0252

METTL13_Q8N6R0_90_ECNATR (UniProt Q8N6R0)
probe-labelled cysteine peptide fold change (10 µM): 0.0646 | probe-labelled cysteine peptide fold change (50 µM): 0.0904

MEFV_O15553_670_TAWILGACK (UniProt O15553)
probe-labelled cysteine peptide fold change (10 µM): -0.0661 | probe-labelled cysteine peptide fold change (50 µM): 0.00852

MCM2_P49736_406_DAILLADLVDSCK (UniProt P49736)
probe-labelled cysteine peptide fold change (10 µM): 0.14 | probe-labelled cysteine peptide fold change (50 µM): 0.0471

MCM2_P49736_522_VRGDINVLLCGDPGTAK (UniProt P49736)
probe-labelled cysteine peptide fold change (10 µM): -0.0667 | probe-labelled cysteine peptide fold change (50 µM): -0.109

MCM7_P33993_566_YIAMCR (UniProt P33993)
probe-labelled cysteine peptide fold change (10 µM): -0.405 | probe-labelled cysteine peptide fold change (50 µM): 0.0286

METAP1_P53582_368_SAQFEHTLLVTDTGCEILTRR (UniProt P53582)
probe-labelled cysteine peptide fold change (10 µM): -0.119 | probe-labelled cysteine peptide fold change (50 µM): -0.0487

MFAP3_P55082_73_EGTSVSIECLLTASHYEDVHWHNSK (UniProt P55082)
probe-labelled cysteine peptide fold change (10 µM): 0.179 | probe-labelled cysteine peptide fold change (50 µM): 0.0374

MCM5_P33992_355_KAIACLLFGGSR (UniProt P33992)
probe-labelled cysteine peptide fold change (10 µM): -0.476 | probe-labelled cysteine peptide fold change (50 µM): -0.468

MEMO1_Q9Y316_244_KYHNTICGR (UniProt Q9Y316)
probe-labelled cysteine peptide fold change (10 µM): -0.0183 | probe-labelled cysteine peptide fold change (50 µM): 0.17

METAP2_P50579_121_VQTDPPSVPICDLYPNGVFPK (UniProt P50579)
probe-labelled cysteine peptide fold change (10 µM): 0.0815 | probe-labelled cysteine peptide fold change (50 µM): -0.0604

MCU_Q8NE86_191_TLVQQLYTTLCIEQHQLNK (UniProt Q8NE86)
probe-labelled cysteine peptide fold change (10 µM): -0.0422 | probe-labelled cysteine peptide fold change (50 µM): -0.0422

ME2_P23368_198_CLPVCIDVGTDNIALLK (UniProt P23368)
probe-labelled cysteine peptide fold change (10 µM): 0.165 | probe-labelled cysteine peptide fold change (50 µM): 0.162

METTL5_Q9NRN9_110_NAEEFELTNIDMVQCDVCLLSNR (UniProt Q9NRN9)
probe-labelled cysteine peptide fold change (10 µM): 0.194 | probe-labelled cysteine peptide fold change (50 µM): -0.162

METTL3_Q86U44_320+326_HTDESLGDCSFLNTCFHMDTCK (UniProt Q86U44)
probe-labelled cysteine peptide fold change (10 µM): 0.097 | probe-labelled cysteine peptide fold change (50 µM): 0.365

MED13_Q9UHV7_681_NQCLSAIASDAEQEPK (UniProt Q9UHV7)
probe-labelled cysteine peptide fold change (10 µM): 0.292 | probe-labelled cysteine peptide fold change (50 µM): -0.0394

MDN1_Q9NU22_2784_EVQTVSEHIQNCLGSQTGGFAGIK (UniProt Q9NU22)
probe-labelled cysteine peptide fold change (10 µM): -0.0547 | probe-labelled cysteine peptide fold change (50 µM): 0.134

MCM6_Q14566_158_THPVHPELVSGTFLCLDCQTVIR (UniProt Q14566)
probe-labelled cysteine peptide fold change (10 µM): 0.116 | probe-labelled cysteine peptide fold change (50 µM): 0.239

MCM4_P33991_572_QLVLQTGALVLSDNGICCIDEFDK (UniProt P33991)
probe-labelled cysteine peptide fold change (10 µM): 0.0647 | probe-labelled cysteine peptide fold change (50 µM): 0.0566

METTL2A_Q96IZ6_126_SEVPECR (UniProt Q96IZ6)
probe-labelled cysteine peptide fold change (10 µM): -0.0528 | probe-labelled cysteine peptide fold change (50 µM): -0.156

MFN2_O95140_132_VLPSGIGHTTNCFLR (UniProt O95140)
probe-labelled cysteine peptide fold change (10 µM): -0.0408 | probe-labelled cysteine peptide fold change (50 µM): -0.269

MCM2_P49736_661_FDILCVVR (UniProt P49736)
probe-labelled cysteine peptide fold change (10 µM): 0.12 | probe-labelled cysteine peptide fold change (50 µM): 0.326

METAP2_P50579_448_NLCDLGIVDPYPPLCDIK (UniProt P50579)
probe-labelled cysteine peptide fold change (10 µM): 0.172 | probe-labelled cysteine peptide fold change (50 µM): 0.214

MCMBP_Q9BTE3_249_VYEDWDCFK (UniProt Q9BTE3)
probe-labelled cysteine peptide fold change (10 µM): 0.134 | probe-labelled cysteine peptide fold change (50 µM): -0.0358

MCM6_Q14566_301_LVFLACCVAPTNPR (UniProt Q14566)
probe-labelled cysteine peptide fold change (10 µM): 0.0104 | probe-labelled cysteine peptide fold change (50 µM): 0.149
